Measurements reported in PubChem BioAssay AID1224830 (NIAID, 2016).
Assay: 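Regulators of TLR4 signalling towards TNF-alpha in macrophage-like cells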 (primary screen). Cells: human THP-1 monocytic leukaemia cells, TNF dual-luciferase reporter clone, PMA-differentiated to macrophage-like cells. Reagents: siRNA pool against human genes, 50 nM. Timing: LPS for 4 h, given about 3 days after siRNA transfection. Conditions: bacterial LPS (TLR4 ligand), 10 ng/ml. Measurement: 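TNF firefly reporter luminescence divided by renilla, normalised to the plate median, then turned into a robust z-score for each replicate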. Scale: TNF reporter robust z-score: higher = stronger TNF reporter response to LPS. Rule for the call: 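Each well counts as active if its z-score is over 2.8 or under -1.5; controls are left without a call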.
The whole screen tested about 18,000 reagents; shown is a part drawn at random. In the full data, about 2,900 (16%) got an active call. 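Calls are made per well; low scores hint the gene aids the LPS response, high scores that it dampens it.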 Repeated entries: four replicate wells of each siRNA pool.

gene | TNF reporter robust z-score | outcome
CLEC2B (GeneID 9976) | -1.46 | inactive
CLEC2B (GeneID 9976) | 0.06 | inactive
CLEC2B (GeneID 9976) | -0.92 | inactive
CLEC2B (GeneID 9976) | -0.93 | inactive
CCDC74A (GeneID 90557) | -1.24 | inactive
CCDC74A (GeneID 90557) | -0.75 | inactive
CCDC74A (GeneID 90557) | -0.5 | inactive
CCDC74A (GeneID 90557) | -0.36 | inactive
OR51I1 (GeneID 390063) | -1.42 | inactive
OR51I1 (GeneID 390063) | -1.44 | inactive
OR51I1 (GeneID 390063) | -1.29 | inactive
OR51I1 (GeneID 390063) | -0.99 | inactive
KRT13 (GeneID 3860) | 0.06 | inactive
KRT13 (GeneID 3860) | 0.58 | inactive
KRT13 (GeneID 3860) | 0.93 | inactive
NAT8 (GeneID 9027) | 0.67 | inactive
NAT8 (GeneID 9027) | 0.88 | inactive
NAT8 (GeneID 9027) | -0.32 | inactive
NAT8 (GeneID 9027) | 1.22 | inactive
LAMC2 (GeneID 3918) | -0.1 | inactive
LAMC2 (GeneID 3918) | 0.15 | inactive
LAMC2 (GeneID 3918) | -0.08 | inactive
LAMC2 (GeneID 3918) | 1.07 | inactive
ARFGAP1 (GeneID 55738) | -0.19 | inactive
ARFGAP1 (GeneID 55738) | 0.96 | inactive
ARFGAP1 (GeneID 55738) | 0.29 | inactive
ARFGAP1 (GeneID 55738) | 0.06 | inactive
NAPRT (GeneID 93100) | 1.8 | inactive
NAPRT (GeneID 93100) | -0.12 | inactive
NAPRT (GeneID 93100) | 2.43 | inactive
NAPRT (GeneID 93100) | 2.57 | inactive
SPACA9 (GeneID 11092) | 2.6 | inactive
SPACA9 (GeneID 11092) | 0.59 | inactive
SPACA9 (GeneID 11092) | 2.94 | active
SPACA9 (GeneID 11092) | 3.08 | active
PKN1 (GeneID 5585) | -1.25 | inactive
PKN1 (GeneID 5585) | -0.77 | inactive
PKN1 (GeneID 5585) | -0.54 | inactive
PKN1 (GeneID 5585) | 0.2 | inactive
FYB2 (GeneID 199920) | 0.69 | inactive
FYB2 (GeneID 199920) | 0.08 | inactive
FYB2 (GeneID 199920) | 0.97 | inactive
FYB2 (GeneID 199920) | -0.47 | inactive
ZNF614 (GeneID 80110) | 0.64 | inactive
ZNF614 (GeneID 80110) | -0.84 | inactive
ZNF614 (GeneID 80110) | -1.02 | inactive
ZNF614 (GeneID 80110) | 0.48 | inactive

Sorted by “TNF reporter robust z-score” (ascending): 5 of the entries above
gene | TNF reporter robust z-score | outcome
PKN1 (GeneID 5585) | -0.77 | inactive
PKN1 (GeneID 5585) | -0.54 | inactive
FYB2 (GeneID 199920) | 0.08 | inactive
PKN1 (GeneID 5585) | 0.2 | inactive
FYB2 (GeneID 199920) | 0.69 | inactive
